Experimental data published in US11592453B2, “Personalized metabolomic profiling of specialized pro-resolving mediators” (THE BRIGHAM AND WOMEN'S HOSPITAL, INC., priority 2016, dated 2023).

Test: LC-MS/MS LM metabololipidomics of human whole blood during coagulation
Conditions: human whole blood, mean of 12 donors

Row | Compound | LM concentration, Coagulation t = 0 h, Avg | LM concentration, Coagulation t = 0.25 h, Avg | LM concentration, Coagulation t = 0.5 h, Avg | LM concentration, Coagulation t = 1 h, Avg | LM concentration, Coagulation t = 3 h, Avg | LM concentration, Coagulation t = 6 h, Avg | LM concentration, Coagulation t = 24 h, Avg
1 | CC/C=C\C[C@H](O)/C=C\C=C\C/C=C/C=C/C=C/C(O)[C@@H](O)CCC(=O)O (stereo in doubt) [RvD4, resolvin D4] | — ((—) denotes concentrations < 0.1 pg/ml) | — ((—) denotes concentrations < 0.1 pg/ml) | — ((—) denotes concentrations < 0.1 pg/ml) | — ((—) denotes concentrations < 0.1 pg/ml) | — ((—) denotes concentrations < 0.1 pg/ml) | — ((—) denotes concentrations < 0.1 pg/ml) | — ((—) denotes concentrations < 0.1 pg/ml)
2 | CC/C=C\C/C=C\C/C=C\C/C=C\C/C=C\C=C\C(O)CCC(=O)O (stereo not drawn) [4-HDHA] | 70.0 pg/mL | 59.7 pg/mL | 90.4 pg/mL | 73.9 pg/mL | 108.0 pg/mL | 97.7 pg/mL | 240.5 pg/mL
3 | CC/C=C\C/C=C\C[C@H](O)/C=C/C=C\C/C=C\C=C\[C@@H](O)CCC(=O)O [4S,14S-diHDHA] | 44.1 pg/mL | 25.4 pg/mL | 15.2 pg/mL | 14.3 pg/mL | 32.9 pg/mL | 60.2 pg/mL | 111.6 pg/mL
4 | CC/C=C\C/C=C\C/C=C\C/C=C\C=C\C(O)CCCC(=O)O (stereo not drawn) [5-HEPE] | 20.7 pg/mL | 24.1 pg/mL | 19.3 pg/mL | 22.6 pg/mL | 48.5 pg/mL | 43.0 pg/mL | 75.0 pg/mL
5 | CCCCC/C=C\C/C=C\C/C=C\C=C\[C@@H](O)CCCC(=O)O [5-HETE] | 487.6 pg/mL | 100.1 pg/mL | 103.2 pg/mL | 173.1 pg/mL | 258.5 pg/mL | 282.1 pg/mL | 436.6 pg/mL
6 | CCCCC/C=C\C[C@H](O)/C=C/C=C\C=C\[C@@H](O)CCCC(=O)O [5S,12S-diHETE] | 4.2 pg/mL | 5.9 pg/mL | 5.0 pg/mL | 10.8 pg/mL | 29.2 pg/mL | 36.7 pg/mL | 39.5 pg/mL
7 | CCCCC[C@H](O)/C=C/C=C\C/C=C\C=C\[C@@H](O)CCCC(=O)O [5S,15S-diHETE, 5S,15S-dihydroxy-eicosa-6E, 8Z, 11Z, 13E-tetraenoic acid] | 2.2 pg/mL | 2.4 pg/mL | 2.0 pg/mL | 3.6 pg/mL | 5.1 pg/mL | 9.7 pg/mL | 20.2 pg/mL
8 | CC/C=C\C/C=C\C/C=C\C/C=C\C=C\C(O)C/C=C\CCC(=O)O (stereo not drawn) [7-HDHA] | 11.5 pg/mL | 12.7 pg/mL | 13.2 pg/mL | 11.9 pg/mL | 13.7 pg/mL | 17.6 pg/mL | 28.8 pg/mL
9 | CC/C=C\C/C=C\C[C@H](O)/C=C/C=C\C=C\[C@@H](O)C/C=C\CCC(=O)O [7S,14S-diHDHA] | 2.2 pg/mL | 2.6 pg/mL | 0.5 pg/mL | 1.1 pg/mL | 3.5 pg/mL | 3.7 pg/mL | 9.7 pg/mL
10 | CC/C=C\C[C@H](O)/C=C/C=C\C=C\[C@@H](O)C/C=C\C/C=C\CCC(=O)O [10S,17S-diHDHA] | 1.3 pg/mL | 1.1 pg/mL | 0.8 pg/mL | 1.0 pg/mL | 2.4 pg/mL | 4.1 pg/mL | 7.9 pg/mL
11 | CC/C=C\C/C=C\CC(O)/C=C/C=C\C/C=C\CCCC(=O)O (stereo not drawn) [12-HEPE] | 4196.1 pg/mL | 4553.0 pg/mL | 4769.4 pg/mL | 4728.3 pg/mL | 16844.3 pg/mL | 21319.3 pg/mL | 26591.1 pg/mL
12 | CCCCC/C=C\C[C@H](O)/C=C/C=C\C/C=C\CCCC(=O)O [12-HETE] | 2238.8 pg/mL | 3515.2 pg/mL | 4092.3 pg/mL | 6481.2 pg/mL | 14018.7 pg/mL | 15921.7 pg/mL | 16532.4 pg/mL
13 | CC/C=C\C/C=C\CC(O)/C=C/C=C\C/C=C\C/C=C\CCC(=O)O (stereo not drawn) [14-HDHA] | 893.1 pg/mL | 1185.7 pg/mL | 662.2 pg/mL | 588.1 pg/mL | 2294.6 pg/mL | 3295.5 pg/mL | 4038.9 pg/mL
14 | CC/C=C\CC(O)/C=C/C=C\C/C=C\C/C=C\CCCC(=O)O (stereo not drawn) [15-HEPE] | 134.8 pg/mL | 214.3 pg/mL | 167.8 pg/mL | 187.7 pg/mL | 620.7 pg/mL | 863.0 pg/mL | 1370.7 pg/mL
15 | CCCCC[C@H](O)/C=C/C=C\C/C=C\C/C=C\CCCC(=O)O [15-HETE] | 258.2 pg/mL | 303.0 pg/mL | 416.2 pg/mL | 1035.6 pg/mL | 2220.3 pg/mL | 3099.5 pg/mL | 4015.6 pg/mL
16 | CC/C=C\CC(O)/C=C/C=C\C/C=C\C/C=C\C/C=C\CCC(=O)O (stereo not drawn) [17-HDHA] | 61.2 pg/mL | 84.5 pg/mL | 59.6 pg/mL | 65.2 pg/mL | 152.7 pg/mL | 230.8 pg/mL | 439.7 pg/mL
17 | CCC(O)/C=C/C=C\C/C=C\C/C=C\C/C=C\CCCC(=O)O (stereo not drawn) [18-HEPE] | 204.5 pg/mL | 314.4 pg/mL | 236.9 pg/mL | 244.5 pg/mL | 571.3 pg/mL | 700.0 pg/mL | 1321.6 pg/mL
18 | O=C(O)CCC[C@H](O)\C=C/C=C/C=C/[C@H](O)C/C=C\CCCCCO [20-OH-LTB4] | — ((—) denotes concentrations < 0.1 pg/ml) | 3.1 pg/mL | 8.0 pg/mL | 29.9 pg/mL | 51.3 pg/mL | 66.5 pg/mL | 47.0 pg/mL
19 | CCCCC/C=C\C/C=C\C/C=C\C/C=C\CCCC(=O)O [AA, arachidonic acid] | 23726.9 pg/mL | 25635.8 pg/mL | 24374.6 pg/mL | 30685.7 pg/mL | 41191.8 pg/mL | 39809.1 pg/mL | 46263.5 pg/mL
20 | CCCCC[C@@H](O)/C=C/C=C\C=C\C=C\[C@@H](O)[C@@H](O)CCCC(=O)O [AT-LX44, 15-epi-lipoxin A4 (aspirin-triggered lipoxin A4)] | 3.6 pg/mL | 6.5 pg/mL | 6.1 pg/mL | 8.1 pg/mL | 11.9 pg/mL | 16.3 pg/mL | 22.5 pg/mL
21 | CCCCC/C=C\C[C@@H](O)/C=C/C=C/C=C\[C@@H](O)CCCC(=O)O [LTB4, leukotriene B4, (5S, 12R-dihydroxy-eicosa-6Z, 8E, 10E, 14Z-tetraenoic acid)] | 5.0 pg/mL | 14.1 pg/mL | 35.2 pg/mL | 106.2 pg/mL | 139.9 pg/mL | 115.4 pg/mL | 105.2 pg/mL
